For at least one entry, the source does not settle the construct or the ends of the probe. At least one verdict was read from the data and is not stated in words by the source.
system: DENR (in DENR-MCTS1 complex, coexpressed) + MCTS1 (in DENR-MCTS1 complex, coexpressed); assay: EMSA; settings: similar affinity to other human tRNAs, Kd in figure only; none; 50 mM Tris pH 7.5, 150 mM NaCl, 15 mM imidazole (protein eluted in 300 mM imidazole, 2 mM DTT added), protein 0.25-16 uM, RNA 1 uM (3 uM yeast tRNA mix), 30 min on ice; recombinant protein; protein details: His6 on DENR or MCTS1,C-terminal His6 or untagged; letters put together from the description

Binding result, binds:
GCCUCGUUAGCGCAGUAGGUAGCGCGUCAGUCUCAUAAUCUGAAGGUCGUGAGUUCGAUCCUCACACGGGGCACCA [human tRNA elonMet (IVT)]
GGGGGAUUAGCUCAAAUGGUAGAGCGCUCGCUUAGCAUGCGAGAGGUAGCGGGAUCGAUGCCCGCAUCCUCCACCA [human tRNA Ala (IVT)]
GUCAGUAUGGCAGAGCGGUAUAAGGCGGUGCGUUCAGGUCACAGUCUCCCCUGGAGGCGUGGGUUAGAAUCCCACUCGUGACCCA [human tRNA Leu (IVT)]
